Results published in the supplement of paper PMC12425257.
± gives the standard deviation of the averaged measurements. The list shows a part of the results.

The compounds below were run on Madurella mycetomatis MM55 (assay: metabolic activity (growth) relative to DMSO growth control; higher = more fungal growth). Settings: 2 µM.

SMILES	metabolic activity [%]
CCOc1nc(C(=O)NCc2ccc(S(C)(=O)=O)cc2)cc(N)c1C#N	99.9 ± 18
CC[C@@H]1C(=O)N(C)c2cnc(Nc3ccc(C(=O)NC4CCN(C)CC4)cc3OC)nc2N1C1CCCC1	76.1 ± 1.3
Cc1ncc2n1CCN(c1nc(C3=C(c4c[nH]c5sccc45)C(=O)NC3=O)c3ccccc3n1)C2	93.8 ± 13
COc1ccc(-c2cc3c(N)ncnc3o2)cc1	91 ± 8.4
COC[C@@H](C)N[C@H]1CC[C@H](Nc2cc(-c3cccc(NCC4(C#N)CCOCC4)n3)c(Cl)cn2)CC1	74.42 ± 0.2
COc1cc2c(cc1CC(C)(C)O)Nc1cc(-c3ccc([N+](=O)[O-])c(OC)c3)ccc1C(=O)N2	104 ± 12
CN1C(=O)c2ccccc2N(C)c2nc(Nc3ccc(S(=O)(=O)NCCCNC(=O)OC(C)(C)C)cc3)ncc21	96.1 ± 18
O=C1Nc2ccc(I)cc2C1=Cc1cc(Br)c(O)c(Br)c1	114 ± 28
CCOc1cc(F)c(Cn2nc(-c3ncc(OC)c(Nc4ccncc4)n3)c(C)c2C2CC2)c(F)c1	108 ± 41
COc1cc(N2CCNCC2)ccc1Nc1nc(Cc2c(Cl)cccc2Cl)cc2c1C(=O)NCN2	102 ± 4.5
CC[C@]1(F)CN(C2CCCC2)c2nc(Nc3ccc(C(=O)NC4CCN(C)CC4)cc3OC)ncc2N(C)C1=O	126 ± 28
COc1cc(OC)c(NC(=O)Nc2cnc(C#N)cn2)cc1Cl	104 ± 18
Cc1ccc(NC(=O)Nc2ccccc2F)cc1-c1ccc(C(=O)Nc2ccncc2)cc1	94.7 ± 1.4
Cc1nc(Nc2cnn(C3CCNCC3)c2)nc2c1N(C)C(=O)c1cc3ccccc3cc1N2C	88.6 ± 18
O=C(O)CSc1ncnc2cc(-c3cc4ccccc4s3)sc12	104 ± 27
OC[C@H]1C[C@@H](Nc2nc(NCCc3cccnc3)ncc2-c2[nH+]c3ccccc3s2)[C@H](O)[C@@H]1O	88.7 ± 16
COc1cc2ncn(-c3cc(OCc4ccncc4)c(C(N)=O)s3)c2cc1OC	103 ± 27
Cn1ccc2ncnc(Oc3ccc(NC(=O)Nc4ccccc4)cc3)c21	113 ± 33
CNC(=O)c1c(F)cccc1Nc1nc(Nc2cc3c(cc2OC)CCN3C(=O)CN(C)C)nc2[nH]ccc12	88.3 ± 26
NC(=O)c1c(Oc2ccc(F)c(NS(N)(=O)=O)c2)cc(F)c(F)c1Nc1ccc(I)cc1F	69.2 ± 3.1
CNc1nc(Nc2ccc(C(=O)N3CCOCC3)cc2OC)nc2[nH]cc(Cl)c12	94.5 ± 9.7
Cn1cncc1-c1ccc(C(=O)N[C@H](CN)c2ccccc2)cc1	127 ± 24

Same assay, conditions: 10 µM

SMILES	metabolic activity [%]
COc1cc2c(cc1OC)C(=C(Nc1ccccc1)c1cccc(CN)c1)C(=O)N2	97.7 ± 18
Cn1cc(-c2cnc3ccc4ccc(COC(=O)NCc5ccccn5)cc4c(=O)c3c2)cn1	120 ± 12
COc1cc(N2CCN(C)CC2)ccc1Nc1ncc2c(n1)N(C)c1ccccc1C(=O)N2	69.9 ± 31
NC[C@@H](NC(=O)c1cccc(-c2ccccn2)c1)c1ccccc1	112 ± 1.2
O=C(Nc1n[nH]c2cc(-c3cccc(F)c3F)ccc12)C1CC1	111 ± 11
CCN1CCN(Cc2ccc(C(=O)Nc3ccc(C)c(Oc4ccc5c(c4)CC(=O)N5)c3)cc2C(F)(F)F)CC1.Cl.Cl	126 ± 44
O=C1NC(=O)C(c2c[nH]c3sccc23)=C1c1nc(N2CCN(CCO)CC2)nc2ccccc12	97.7 ± 18
NCC1CNC(=O)c2cc3ccc(C(=O)Nc4cccnc4)cc3n2C1 (stereo not drawn)	105 ± 2.1
CCOc1ccc2c(-c3ccnc(Nc4cccc(C(F)(F)F)c4)n3)cnn2n1	112 ± 29
CC(C)(C)c1cnc(CSc2cnc(NC(=O)C3CCS(=O)(=O)CC3)s2)o1	104 ± 16
Cl.O=C(O[C@H]1CN[C@H](C#Cc2cc3ncnc(Nc4ccc5c(cnn5Cc5ccccc5)c4)c3s2)C1)N1CCOCC1	118 ± 33
O=C(O)c1cc2c(-c3cccc(-c4ccccc4)c3)cncc2s1	111 ± 28
C[C@@H]1CCNC(=O)c2cc3ccc(C(=O)Nc4nc5ccccc5n4CCCN(C)C)cc3n21	101 ± 10
O=C(O)C(F)(F)F.O=c1c2cnc(Nc3ccc(N4CCCCC4)cc3)nc2n2ccnc2n1-c1ccccc1Cl	93.8 ± 24
CCOc1nc(C(=O)NCc2ccc(S(C)(=O)=O)cc2)cc(N)c1C#N	109 ± 7.4
CC[C@@H]1C(=O)N(C)c2cnc(Nc3ccc(C(=O)NC4CCN(C)CC4)cc3OC)nc2N1C1CCCC1	88.4 ± 4.4
Cc1ncc2n1CCN(c1nc(C3=C(c4c[nH]c5sccc45)C(=O)NC3=O)c3ccccc3n1)C2	98.4 ± 8.6
COc1ccc(-c2cc3c(N)ncnc3o2)cc1	103 ± 16

SMILES	metabolic activity [%]
COC[C@@H](C)N[C@H]1CC[C@H](Nc2cc(-c3cccc(NCC4(C#N)CCOCC4)n3)c(Cl)cn2)CC1	93.2 ± 5.7
COc1cc2c(cc1CC(C)(C)O)Nc1cc(-c3ccc([N+](=O)[O-])c(OC)c3)ccc1C(=O)N2	127 ± 15
CN1C(=O)c2ccccc2N(C)c2nc(Nc3ccc(S(=O)(=O)NCCCNC(=O)OC(C)(C)C)cc3)ncc21	120 ± 19
O=C1Nc2ccc(I)cc2C1=Cc1cc(Br)c(O)c(Br)c1	98.3 ± 4.2
CCOc1cc(F)c(Cn2nc(-c3ncc(OC)c(Nc4ccncc4)n3)c(C)c2C2CC2)c(F)c1	125 ± 7.4
COc1cc(N2CCNCC2)ccc1Nc1nc(Cc2c(Cl)cccc2Cl)cc2c1C(=O)NCN2	94 ± 16
CC[C@]1(F)CN(C2CCCC2)c2nc(Nc3ccc(C(=O)NC4CCN(C)CC4)cc3OC)ncc2N(C)C1=O	104 ± 7.4
COc1cc(OC)c(NC(=O)Nc2cnc(C#N)cn2)cc1Cl	112 ± 32
Cc1ccc(NC(=O)Nc2ccccc2F)cc1-c1ccc(C(=O)Nc2ccncc2)cc1	108 ± 4.4
Cc1nc(Nc2cnn(C3CCNCC3)c2)nc2c1N(C)C(=O)c1cc3ccccc3cc1N2C	100 ± 30
O=C(O)CSc1ncnc2cc(-c3cc4ccccc4s3)sc12	131 ± 34
OC[C@H]1C[C@@H](Nc2nc(NCCc3cccnc3)ncc2-c2[nH+]c3ccccc3s2)[C@H](O)[C@@H]1O	101 ± 26
COc1cc2ncn(-c3cc(OCc4ccncc4)c(C(N)=O)s3)c2cc1OC	99.2 ± 21
Cn1ccc2ncnc(Oc3ccc(NC(=O)Nc4ccccc4)cc3)c21	105 ± 6.6
CNC(=O)c1c(F)cccc1Nc1nc(Nc2cc3c(cc2OC)CCN3C(=O)CN(C)C)nc2[nH]ccc12	84.2 ± 3.3
NC(=O)c1c(Oc2ccc(F)c(NS(N)(=O)=O)c2)cc(F)c(F)c1Nc1ccc(I)cc1F	110 ± 16
CNc1nc(Nc2ccc(C(=O)N3CCOCC3)cc2OC)nc2[nH]cc(Cl)c12	101 ± 15
Cn1cncc1-c1ccc(C(=O)N[C@H](CN)c2ccccc2)cc1	92.7 ± 11
